Results are given in words; binding and its absence hold for the method and conditions named. For some assays here: In cells and extracts the contact can be indirect. Some entries that bind do so weakly or less than the wild type. Where a sequence is shown, tags or fusion partners need not be part of it.
Experiments:
[1] = molecular target: T1, PDZ domain of RIM1 (GST fusion protein) (UniProt Q9JIR4); assay: binding of GST fusion proteins of domains (FIG. 6)
T1 sequence (looked up): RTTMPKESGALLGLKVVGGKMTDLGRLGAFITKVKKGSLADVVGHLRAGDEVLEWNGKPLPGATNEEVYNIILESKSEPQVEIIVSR

[2] = molecular target: T1, PDZ domain of RIM1 (GST fusion protein); assay: co-immunoprecipitation of RIM1 with domains of CAST and of CAST with domains of RIM1 (FIG. 6)

binding [1]: binds
binding [2]: binds
B1: C-terminal domain of CAST (GST fusion protein) (protein, not shown: a dimerising Fc or GST)
chain: DQNKKVANLKHNQQLEKKKNAQLLEEVRRREFSMVDNSQHLQIEELMNALEKTRQELDATKARLASTQQSLAEKEAHLANLRMERRKQLEEILEMKQEALLAAISEKDANIALLELSASKKKKTQEEVMALKREKDRLVHQLKQQTQNRMKLMADNYDDDHHHYHHHHHHHHHRSPGRSQHSNHRPSPDQDDEEGIWA
